According to US20250011456A1, “ANTIBODIES AGAINST CD14 AND USES THEREOF” (Villanelle Life Science Inc, priority 2023, published 2025):
Numbering of substitutions follows the chain as printed. No constants are given. Whether binding was seen depends on the method and setting. Some entries that bind do so weakly or less than the wild type.

Protein sequences, listed by entry. Tags and fused reporters are not part of them. Residues count along the entry.
UniProt P08571, residues 20-352: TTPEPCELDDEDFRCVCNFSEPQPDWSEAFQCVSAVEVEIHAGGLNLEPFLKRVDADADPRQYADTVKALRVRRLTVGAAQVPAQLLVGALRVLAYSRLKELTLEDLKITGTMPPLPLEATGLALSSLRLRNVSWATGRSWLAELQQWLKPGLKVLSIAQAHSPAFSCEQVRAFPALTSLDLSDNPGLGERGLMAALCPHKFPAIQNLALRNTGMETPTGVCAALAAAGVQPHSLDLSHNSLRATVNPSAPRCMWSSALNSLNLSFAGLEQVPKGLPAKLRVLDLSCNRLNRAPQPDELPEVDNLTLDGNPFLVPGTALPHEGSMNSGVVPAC

Key:
[1] = target: Recombinant Human CD14/His Protein (B294801) (human) (UniProt P08571); test: SPR (Biacore 8K), antibody captured on Protein A chip, CD14-His as analyte at 0.78125-25 nM
[2] = target: Recombinant Human CD14/His Protein (B294801) (human) (UniProt P08571); test: SPR (Biacore 8K)
[3] = target: Recombinant Human CD14/His Protein (B294801) (human) (UniProt P08571); test: SPR (Biacore platform)

B1: Antibody No. D6DD3D001 (HU1127-mVH/mVL) (antibody, human IgG1, kappa, V domains shown)
VH: DVQLQQSGPGLVKPSQSLSLTCTVTGYSITSDSAWNWIRQFPGNRLEWMGYISYSGSTSYNPSLKSRISITRDTSKNQFFLQLNSVTTEDTATYYCVRGLRFAYWGQGTLVTVSS
VL: DIVLTQSPASLAVSLGQRATISCRASESVDSYVNSFLHWYQQKPGQPPKLLIYRASNLQSGIPARFSGSGSRTDFTLTINPVEADDVATYYCQQSNEDPYTFGGGTKLEIKR
- binding [1]: binds

B2: Antibody No. D6DD3D012 (HU1127-hVH1/hVL3) (antibody, human IgG1, kappa, V domains shown)
VH: QVQLQESGPGLVKPSQTLSLTCTVSGGSISSDSAWNWIRQHPGKGLEWIGYISYSGSTSYNPSLKSRVTISRDTSKNQFSLKLSSVTAADTAVYYCVRGLRFAYWGQGTLVTVSS
VL: DIQLTQSPSSLSASVGDRVTITCRASESVDSYVNSFLHWYQQKPGKAPKLLIYRASNLQSGVPSRFSGSGSRTDFTLTISSLQPEDVATYYCQQSNEDPYTFGQGTKLEIKR
- binding [1]: binds
- binding [2]: binds

B3: Antibody No. D6DD3D002 (HU1127-hVH1/hVL1) (antibody, human IgG1, kappa, V domains shown)
VH: B2 VH
VL: EIVLTQSPATLSLSPGERATLSCRASESVDSYVNSFLHWYQQKPGQAPRLLIYRASNLQSGIPARFSGSGSRTDFTLTISSLEPEDVAVYYCQQSNEDPYTFGQGTKLEIKR
- binding [1]: binds
- binding [2]: binds

B4: Antibody No. D6DD3D007 (HU1127-hVH1/hVL2) (antibody, human IgG1, kappa, V domains shown)
VH: B2 VH
VL: DIVLTQSPDSLAVSLGERATINCRASESVDSYVNSFLHWYQQKPGQPPKLLIYRASNLQSGVPDRFSGSGSRTDFTLTISSLQAEDVAVYYCQQSNEDPYTFGQGTKLEIKR
- binding [1]: binds
- binding [2]: binds

B5: Antibody No. MPDDAD003 (HU1127-hVH3/hVL3-3) (antibody, V domains shown)
VH: B2 VH with V2L, Q16E, H41P
VL: DIQLTQSPSSLSASVGDRVTITCRASESVDSYVTSFLHWYQQKPGKAPKLLIYRASNLQSGVPSRFSGSGSRTDFTLTISSLQPEDVATYYCQQSNEDPYTFGQGTKLEIK
- binding [3]: binds
- binding [2]: binds
